Results from patent US20240029824A1 (University of Washington, published 2024).
Results are given in words; binding and its absence hold for the method and conditions named. Some entries that bind do so weakly or less than the wild type.

Tests used:
[1] = target: T1, DHT05 chain C (SEQ ID NO: 98); assay: co-expression, SEC, SAXS; chains of one ABC heterotrimer
T1 sequence: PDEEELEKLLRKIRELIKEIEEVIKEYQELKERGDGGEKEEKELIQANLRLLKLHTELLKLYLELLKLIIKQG

[2] = target: T2, DHT05_2arm_A62/B14(2)-LHD101B14/C chain B; assay: as above
T2 sequence: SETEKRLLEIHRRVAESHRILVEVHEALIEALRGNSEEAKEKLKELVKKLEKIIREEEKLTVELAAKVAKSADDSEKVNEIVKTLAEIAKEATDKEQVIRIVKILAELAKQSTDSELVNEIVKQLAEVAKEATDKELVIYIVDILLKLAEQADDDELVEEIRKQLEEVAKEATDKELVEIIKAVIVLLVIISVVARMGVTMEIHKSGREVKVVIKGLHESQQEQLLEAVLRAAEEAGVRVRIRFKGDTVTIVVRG

[3] = target: T3, DHT05_2arm_A62/B14/C chain B; assay: SEC and SAXS; chains of one ABC heterotrimer
T3 sequence: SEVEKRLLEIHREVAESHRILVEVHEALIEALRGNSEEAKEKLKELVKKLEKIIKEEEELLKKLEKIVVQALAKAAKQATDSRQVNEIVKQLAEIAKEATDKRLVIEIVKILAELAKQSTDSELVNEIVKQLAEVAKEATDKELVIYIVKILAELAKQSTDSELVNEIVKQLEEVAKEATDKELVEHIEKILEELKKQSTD

[4] = target: T4, DHT05 chain C (SEQ ID NO: 89); assay: SEC and SAXS; chains of one ABC heterotrimer
T4 sequence: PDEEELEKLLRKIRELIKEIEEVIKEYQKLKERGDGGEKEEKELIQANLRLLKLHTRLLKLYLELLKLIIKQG

[5] = target: T5, DHT05 chain C (SEQ ID NO: 95); assay: SEC and SAXS; chains of one ABC heterotrimer
T5 sequence: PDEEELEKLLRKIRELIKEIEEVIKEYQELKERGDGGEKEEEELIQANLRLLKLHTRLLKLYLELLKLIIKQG

[6] = target: T6, DHT05 chain B (SEQ ID NO: 88); assay: SEC and SAXS; chains of one ABC heterotrimer
T6 sequence: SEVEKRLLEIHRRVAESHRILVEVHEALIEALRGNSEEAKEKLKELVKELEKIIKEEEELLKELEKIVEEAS

DHT05 chain C = target: T7, DHT05 chain C; assay: co-expression, IMAC, SEC, native MS; chains of one ABC heterotrimer
T7 sequence: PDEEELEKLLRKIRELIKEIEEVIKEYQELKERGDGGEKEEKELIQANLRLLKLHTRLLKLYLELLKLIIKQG

DHT05 chain B = target: T8, DHT05 chain B; assay: as above
T8 sequence: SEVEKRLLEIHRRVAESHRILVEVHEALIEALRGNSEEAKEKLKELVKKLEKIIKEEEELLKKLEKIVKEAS

[7] = target: T9, DHT05_1arm_A/B/C62 chain C; assay: SEC and SAXS; chains of one ABC heterotrimer
T9 sequence: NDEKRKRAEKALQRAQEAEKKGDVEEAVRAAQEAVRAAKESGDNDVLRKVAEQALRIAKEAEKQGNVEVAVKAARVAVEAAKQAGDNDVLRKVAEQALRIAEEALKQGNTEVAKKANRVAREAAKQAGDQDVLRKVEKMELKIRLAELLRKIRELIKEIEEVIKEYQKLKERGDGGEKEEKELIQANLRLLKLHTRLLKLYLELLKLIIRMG

DHT03 chain B [8] = target: T10, DHT03 chain B; assay: co-expression, IMAC, SEC, native MS; chains of one ABC heterotrimer
T10 sequence: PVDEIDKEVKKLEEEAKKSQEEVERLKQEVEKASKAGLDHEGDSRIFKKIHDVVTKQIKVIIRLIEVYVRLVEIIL

DHT03 chain C [9] = target: T11, DHT03 chain C; assay: as above
T11 sequence: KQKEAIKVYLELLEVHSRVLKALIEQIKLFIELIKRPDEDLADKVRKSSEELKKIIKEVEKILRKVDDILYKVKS

DHT03 chain B [10] = target: T10, DHT03 chain B; assay: native MS; loop-connectivity variant of DHT03, chains of one ABCD heterotetramer
[11] = target: T12, DHT03_variant_AB-5 chain A; assay: as above
T12 sequence: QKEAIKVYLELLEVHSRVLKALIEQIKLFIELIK

[12] = target: T13, DHT03_1arm_A/B21/C chain B; assay: tricistronic expression, SEC, native MS; chains of one ABC heterotrimer
T13 sequence: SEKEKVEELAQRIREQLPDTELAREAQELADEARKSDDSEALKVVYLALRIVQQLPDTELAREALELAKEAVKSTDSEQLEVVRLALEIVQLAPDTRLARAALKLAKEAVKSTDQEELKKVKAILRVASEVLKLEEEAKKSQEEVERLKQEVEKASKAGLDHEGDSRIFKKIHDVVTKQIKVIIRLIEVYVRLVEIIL

DHT03 chain B [13] = target: T10, DHT03 chain B; assay: X-ray crystal structure, 2.35 A
DHT03 chain C [14] = target: T11, DHT03 chain C; assay: X-ray crystal structure, 2.35 A
[15] = target: T14, DHT03_variant_ABCD-1 chain D; assay: native MS; loop-connectivity variant of DHT03, chains of one ABCD heterotetramer
T14 chain: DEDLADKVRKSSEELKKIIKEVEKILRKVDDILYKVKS

[16] = target: T15, DHT03_variant_AB-5 chain B; assay: native MS; loop-connectivity variant of DHT03, AB heterodimer
T15 sequence: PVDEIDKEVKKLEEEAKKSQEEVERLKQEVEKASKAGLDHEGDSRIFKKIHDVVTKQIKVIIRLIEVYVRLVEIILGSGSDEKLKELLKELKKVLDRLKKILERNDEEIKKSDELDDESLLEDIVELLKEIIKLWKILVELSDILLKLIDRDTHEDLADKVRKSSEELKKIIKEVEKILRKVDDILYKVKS

DHT03 chain C [17] = target: T11, DHT03 chain C; assay: X-ray crystal structure, 3.35 A
[18] = target: T16, DHT03 chain B (SEQ ID NO: 55); assay: X-ray crystal structure, 3.35 A
T16 sequence: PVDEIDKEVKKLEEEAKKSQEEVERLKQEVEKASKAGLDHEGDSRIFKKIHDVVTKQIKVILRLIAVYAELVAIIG

DHT03 chain C [19] = target: T11, DHT03 chain C; assay: tricistronic expression, SEC, native MS; chains of one ABC heterotrimer
[20] = target: T16, DHT03 chain B (SEQ ID NO: 55); assay: as above
[21] = target: T17, DHT03 chain C (SEQ ID NO: 59); assay: as above
T17 sequence: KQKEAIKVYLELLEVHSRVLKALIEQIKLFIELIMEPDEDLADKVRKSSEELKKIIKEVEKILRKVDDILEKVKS

Measured: binding

B1: DHT05_1arm_A62/B/C chain A (designed binder)
chain: NDEKRKRAEKALQRAQEAEKKGDVEEAVRAAQEAVRAAKESGDNDVLRKVAEQALRIAKEAEKQGNVEVAVKAARVAVEAAKQAGDNDVLRKVAEQALRIAKEAEKQGNVKVAADAVKVAVEAATQAGDQDVLRKASEQAKKVAKEAKKKGDHKVAVKATTLAVKAEFAAIQEEIKKLEEEAKKAEKGNGKEEIKELLLRLSELLARSLQLLAQQIEAIAKLIRG
binds: [1] | [2] | [3] | [4] | [5] | [6]

B2: DHT05 chain A (designed binder)
chain: PEEKKEIKRTTEEVKEEFRKIQEEIKKLEEEAKKAEKGNGKEEIKELLLRLSELLARSLQLLAQQIEAIAKLIRG
binds: DHT05 chain C | DHT05 chain B | [7]

B3: DHT05 chain B (SEQ ID NO: 88) (designed binder)
chain: SEVEKRLLEIHRRVAESHRILVEVHEALIEALRGNSEEAKEKLKELVKELEKIIKEEEELLKELEKIVEEAS
binds: [7]

B4: DHT03 chain A (designed binder)
chain: PEEEKLKELLKELKKVLDRLKKILERNDEEIKKSDELDDESLLEDIVELLKEIIKLWKILVELSDILLKLIS
binds: DHT03 chain B [8] | DHT03 chain C [9] | DHT03 chain B [10] | [11] | [12] | DHT03 chain B [13] | DHT03 chain C [14]

B5: DHT03 chain B (designed binder)
chain: PVDEIDKEVKKLEEEAKKSQEEVERLKQEVEKASKAGLDHEGDSRIFKKIHDVVTKQIKVIIRLIEVYVRLVEIIL
binds: DHT03 chain C [9] | [11] | [15] | DHT03 chain C [14]

B6: DHT05 chain B (designed binder)
chain: SEVEKRLLEIHRRVAESHRILVEVHEALIEALRGNSEEAKEKLKELVKKLEKIIKEEEELLKKLEKIVKEAS
binds: DHT05 chain C

QKEAIKVYLELLEVHSRVLKALIEQIKLFIELIK (designed binder) [DHT03_variant_AB-5 chain A]
binds: [16] | [15]

B7: DHT03_1arm_A21/B/C chain A (designed binder)
chain: SEKEKVEELAQRIREQLPDTELAREAQELADEARKSDDSEALKVVYLALRIVQQLPDTELAREALELAKEAVKSTDSEALKVVYLALRIVQQLPDTELARLALELAKKAVEMTAQEVLEIARAALKAAQAFPNTELAELMLRLAEVAARVMKELERNDEEIKKSDELDDESLLEDIVELLKEIIKLWKILVEVSDVMLKLIS
binds: DHT03 chain C [17] | [18] | DHT03 chain C [19] | [20]

B8: DHT03 chain B (SEQ ID NO: 55) (designed binder)
chain: PVDEIDKEVKKLEEEAKKSQEEVERLKQEVEKASKAGLDHEGDSRIFKKIHDVVTKQIKVILRLIAVYAELVAIIG
binds: DHT03 chain C [17] | DHT03 chain C [19]

B9: DHT03_1arm_A/B21/C chain B (designed binder)
chain: SEKEKVEELAQRIREQLPDTELAREAQELADEARKSDDSEALKVVYLALRIVQQLPDTELAREALELAKEAVKSTDSEQLEVVRLALEIVQLAPDTRLARAALKLAKEAVKSTDQEELKKVKAILRVASEVLKLEEEAKKSQEEVERLKQEVEKASKAGLDHEGDSRIFKKIHDVVTKQIKVIIRLIEVYVRLVEIIL
binds: [21]
